Screening data, single-dose tests

Results are given as percent effect.
How 0% and 100% were set is not recorded. Most values in the screen are low, and negative values occur.
This is an unselected part of the compounds tested.

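Whole-parasite assay of Trypanosoma brucei over 72 hours; the read-out is not stated. Concentration: 30 µM. Direction is inferred from retests: higher values go with stronger inhibition. Values scatter widely below zero; nearly all retest evidence comes from the higher of the two concentrations used. Size under these conditions: about 64,000 compounds, about 940 of them at 50% or above in at least one test.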

| compound | effect |
|---|---|
| `Cl.c1nc(N2CCOCC2)sc1-c1cncn1CCCN1CCCCC1` | -11.36 |
| `NC(=O)NCC(=O)N1CCCC(c2nccn2CC2CCC2)C1` (stereo not drawn) | -4.829 |
| `Cc1cc(N2CCC(n3cc(CN4CCSCC4)nn3)CC2)ccn1` | -5.328 |
| `CN(C)CC(=O)N1CCOC2(CCCN(c3ncccc3F)C2)C1.O=C(O)C(F)(F)F.O=C(O)C(F)(F)F` (stereo not drawn) | 14.19 |
| `Cc1cc(N2CCCC(N(C)C)C2)n2nccc2n1` (stereo not drawn) | -47.95 |
| `CC(C)c1cc(NC(=O)c2ccc([S+]([O-])C(C)C)cc2)[nH]n1` (stereo not drawn) | 80.42 |
| `O=C(O)Cn1ccc(=O)c2ccc(Cl)cc21` | -12.97 |
| `O=C(Nc1cccc(Cn2cccn2)c1)N1CCCC(N2CCCC2)C1` (stereo not drawn) | 6.24 |
| `O=C(CCc1cc(Cl)no1)N1CCN(CCn2cncn2)CC1` | -6.7 |
| `COc1cccc2sc(N(C)CC(=O)NCc3nc(C)no3)nc12` | 5.238 |
| `CCc1nc(CCNC(=O)C2CCOC2)sc1C` (stereo not drawn) | 9.745 |
| `NC(=O)C1CCN(C(=O)NCc2ccccc2Cn2ccnc2)CC1` | -51.22 |
| `COC(=O)Cn1ccc(NS(=O)(=O)c2ccc3c(c2)CCC3)n1` | -25.38 |
| `CS(=O)(=O)c1ccc(Cl)c(NC(=O)NCCC2=CCCCC2)c1` | -22.4 |
| `COCC1CC2(CCN(c3ccc(C)nn3)CC2)CN1C(C)C.O=C(O)C(F)(F)F` (stereo not drawn) | 0.683 |
| `Cn1ccnc1CN(CCCO)C1CCCc2ccccc21` (stereo not drawn) | 13.22 |
| `O=C(CCc1cc2n(n1)CCN(Cc1ncc[nH]1)C2)N1CCCC1` | -1.8 |
| `CN(CC(=O)N1CCCN(Cc2cscn2)CC1)c1cnccn1` | -4.943 |
| `CCNc1ccnc(NC2CCN(CC(N)=O)CC2)n1` | -23.74 |
| `CCOC(=O)C1(NC(=O)CCNc2cc(C)ccc2OC)CCCCC1` | -29.67 |
| `Cc1nc(C)n(C2CCCN(C(=O)c3cccnc3NC(C)C)C2)n1` (stereo not drawn) | 13.92 |
| `CN(C(=O)NCc1ccncc1)C1CCN(c2ccccc2)C1=O` (stereo not drawn) | 11.34 |
| `Cc1nc(-c2ccco2)ccc1C(=O)NCCCN1CCOCC1` | -6.395 |
| `[H][C@@]12OCCN(C(=O)c3nn(C)c4ccccc34)[C@@]1([H])CC[C@@H]2OC` | -33.03 |
| `CC(C)N(C)S(=O)(=O)N(C)Cc1cnn(Cc2ccccc2)c1` | -10.63 |
| `COCC(=O)N1CCC2(CCN(Cc3cccnc3)C2)CC1.O=C(O)C(F)(F)F.O=C(O)C(F)(F)F` | -4.504 |
| `CC(=O)Nc1cccc(OCCNC(=O)N(C)Cc2ccccc2)c1` | -34.05 |
| `CCc1cc(NCc2cc3n(n2)CCCN(S(C)(=O)=O)C3)nc(C)n1` | -26.95 |
| `O=C(NCCc1csc(N2CCCC2)n1)N(C1CCCC1)C1CC1` | -33.78 |
| `Cn1cnc2c1CCN(CCS(=O)(=O)c1ccc(Cl)cc1)C2` | 15.93 |
| `COc1ccc(CNCC2CNc3ccnn3C2)cn1` (stereo not drawn) | -21.27 |
| `CC(C)c1noc([C@@H]2Cc3[nH]cnc3CN2C(=O)Nc2ccccc2)n1` | -74.84 |
| `COCCN1CCN(Cc2nc(-c3ccoc3)no2)CC1` | -38.65 |
| `COc1ccc(-c2cn3c(n2)CO[C@@H](CNCc2nccn2C)C3)cc1` | -50.99 |
| `Cc1cnc(CN(Cc2ccc(Cl)s2)C2CCN(C)C2)o1` (stereo not drawn) | -5.686 |
| `Cc1ccccc1C(=O)Nc1ccc(OC2CCN(C)CC2)cc1` | -8.393 |
| `CN(C)C[C@@H]1CN(C(=O)c2cc(S(N)(=O)=O)ccc2F)C[C@@H]1CO` | -23.84 |
| `COc1ccccc1NC(=O)Cc1c(C)nc2c(c1C)c(=O)[nH]n2C` | 4.506 |
| `O=C(O)C(F)(F)F.[H][C@@]12CN(Cc3ccc(C)o3)CCC[C@]1(C(=O)O)CN(c1ncccn1)C2` | 10.89 |
| `Cn1cnc2c1C(COCC1CC1)CN(Cc1ccc3c(c1)OCO3)C2.O=C(O)C(F)(F)F.O=C(O)C(F)(F)F` (stereo not drawn) | -28.36 |
| `CC(C)N(CCO)C(=O)c1cc(COc2ccc3c(c2)CCCC3)on1` | 17.47 |
| `Cn1cc(S(=O)(=O)NCCc2nnc3ccccn23)cn1` | -31.66 |
| `CCOCC(=O)NCC1Cn2nnc(-c3cccc(F)c3)c2CO1` (stereo not drawn) | -5.381 |
| `O=C(O)C(F)(F)F.O=C(O)C(F)(F)F.[H][C@@]12OCCN(CC3CC3)[C@@]1([H])CC[C@H]2OCCCn1cccn1` | -8.928 |
| `[H][C@@]12C[C@H](C(=O)N(C)C)[C@@]([H])(CN(c3ncccn3)C1)O2` | 11.01 |
| `Cc1cccc(C(=O)NCc2ccc(N3CCCCCC3)nc2)n1` | 8.738 |
| `[H][C@@]12CS(=O)(=O)C[C@]1([H])N(Cc1cc(OC)cc(OC)c1)CCN2CC1CC1` | -24.8 |
| `Cc1cnn(CC2CN(CCc3ccccn3)CCO2)c1` (stereo not drawn) | -11.72 |
| `CC(=O)OCc1ccc(CN2CCCCCC2c2cc(C)no2)o1` (stereo not drawn) | -40.75 |
| `[H][C@@]12CS(=O)(=O)C[C@]1([H])N(C(=O)c1ccc(OC)o1)CCN2C(=O)CC` | -17.48 |
| `O=C(O)C(F)(F)F.[H][C@@]12C[C@H](C(=O)N3CCCCO3)CN(C(=O)c3ccccn3)[C@]1([H])CCO2` | 4.458 |
| `Cc1csc(Nc2cc(C3CN(C(C)C)C3)nc(C)n2)n1` | 84.55 |
| `Cn1ncnc1-c1ccnc(NCc2ccccn2)n1` | -14.75 |
| `CCN(Cc1ccc2c(c1)OCCO2)C(=O)NCc1csc(C)n1` | 15.91 |
| `Cc1noc(C)c1S(=O)(=O)NCC(C)(O)c1ccc2c(c1)OCO2` (stereo not drawn) | 8.24 |
| `CCCOCC(=O)NC1CCc2nc(C)cn2C1` (stereo not drawn) | 14.7 |
| `COc1cccc(N2CCC(N3CCOC(C(F)(F)F)C3)CC2)c1` (stereo not drawn) | -21.08 |
| `COc1cccc(CCNC(=O)CN2CCCC2c2noc(C)n2)c1` (stereo not drawn) | -0.2076 |
| `Cc1ccc(F)c(C(=O)N2CCN(S(C)(=O)=O)[C@@H](C)C2)c1` | -51.75 |
| `Cc1ccc(CN(CCCN2CCOCC2)Cc2cnc(C)n2C)o1.O=C(O)CC(O)(CC(=O)O)C(=O)O` | -14.69 |
| `CC(=O)NCC(=O)N1CCOCC(Cc2ccc3c(ccn3C)c2)C1` (stereo not drawn) | 5.23 |
| `Cc1cc(CNC2CCc3nc(C(C)C)nn3C2)on1` (stereo not drawn) | -4.337 |
| `CCc1nc(CCNc2ccc(S(N)(=O)=O)cc2C#N)cs1` | -41.48 |
| `CCCc1cc(C(=O)N[C@@H]2CCC[C@@H](N3CCCC3)[C@@H]2O)no1` | -3.584 |
| `Cc1nn(C)c(C)c1C(=O)NCc1cccnc1OC1CCCC1` | -25.51 |
| `CC[C@H](C)[C@H](N)C(=O)Nc1nc(-c2cnc(N(C)C)nc2)cs1` | 53.79 |
| `O=C(NCCNC(=O)c1scnc1Cl)c1ccccc1Cl` | 9.75 |
| `O=C1NC2(CCCN(C(=O)CCn3cncn3)C2)Oc2ccccc21` (stereo not drawn) | -4.198 |
| `Cc1cc(C)n(CC(C)NC(=O)c2cc(C(C)C)on2)n1` (stereo not drawn) | -58.57 |
| `CC(C)c1cc(C(=O)NCCn2nc3ccccn3c2=O)n[nH]1` | 12.81 |
| `OCC1CCN(Cc2cc3c(cc2Br)OCCO3)CC1` | -14.01 |
| `CCCNC(c1cccnc1)c1ccc(F)c(C)c1.Cl.Cl` (stereo not drawn) | -37.59 |
| `CCOCc1ccc(CNC2=NCCCN2)cc1.I` | -5.411 |
| `[H][C@@]12CN(Cc3ccc(C)c(F)c3F)C[C@]1(C(=O)O)CN(CC1CC1)C2=O` | -38.94 |
| `CC(C)c1n[nH]c(C2CN(C(=O)c3cc(Cl)c[nH]3)CCO2)n1` (stereo not drawn) | 19.76 |
| `O=C(Cc1cccs1)N1CCC2(CC1)COCCN2CC1CC1.O=C(O)C(F)(F)F` | -27.04 |
| `Cc1cc(C2CCCN(Cc3nnc(Cc4ccccc4)o3)C2)n[nH]1` (stereo not drawn) | -45.22 |
| `CSCC[C@@H](CO)n1ccnc1-c1nccn1C` | -64.53 |
| `Cn1nccc1-c1ncc(-c2cc(C(=O)O)n(CC3CC3)c2)cn1` | -33.56 |
| `[H][C@]12CN(Cc3ccco3)C[C@@]1([H])OCCN(S(=O)(=O)C1CC1)C2` | -68.82 |
| `Nc1nc(CCNc2ncnc3c2CCN(C(=O)C2CC2)C3)cs1` | -140.6 |
| `CC(C)C1CN(c2cccc(C#N)n2)CCCN1CC1CC1` (stereo not drawn) | -2.966 |
| `NCc1cn(CC2CCCN(C(=O)NCCc3ccc(F)cc3)C2)nn1` (stereo not drawn) | -14.93 |
| `CN(C)CC1(O)CCCN(C(=O)CCn2cc(Cl)cn2)C1` (stereo not drawn) | -44.69 |
| `O=C(CC1CC1)NCc1cn2c(n1)CN(C(=O)c1cccnc1)CC2` | -3.499 |
| `N#Cc1cccc(S(=O)(=O)NC(=O)c2csc(-c3ccco3)n2)c1` | -10.96 |
| `CN(C)C(=O)CS(=O)(=O)Cc1cc(Cl)c2c(c1)OCCO2` | -9.06 |
| `O=C(O)C(F)(F)F.O=C(O)C(F)(F)F.[H][C@@]12C[C@@H](OCc3ccccn3)CN1CCN(c1ncc(C)cn1)C2` | -66.28 |
| `COc1ccc2nnc(CCC(=O)Nc3nc4c(s3)CCC4)n2n1` | -14.55 |
| `COc1cc(NC(=O)c2cc(C)sc2C)c(C(=O)N(C)C)cc1OC` | -4.965 |
| `CN(Cc1c(Cl)ccc2cccnc12)CC(C)(CO)CO` | -11.54 |
| `Cc1nnc(C(NS(=O)(=O)c2cc(C#N)ccc2C)C(C)C)[nH]1` (stereo not drawn) | 4.972 |

The first 12 entries again:

{"compound": "Cl.c1nc(N2CCOCC2)sc1-c1cncn1CCCN1CCCCC1", "effect": -11.36}
{"compound": "NC(=O)NCC(=O)N1CCCC(c2nccn2CC2CCC2)C1", "stereo": "stereo not drawn", "effect": -4.829}
{"compound": "Cc1cc(N2CCC(n3cc(CN4CCSCC4)nn3)CC2)ccn1", "effect": -5.328}
{"compound": "CN(C)CC(=O)N1CCOC2(CCCN(c3ncccc3F)C2)C1.O=C(O)C(F)(F)F.O=C(O)C(F)(F)F", "stereo": "stereo not drawn", "effect": 14.19}
{"compound": "Cc1cc(N2CCCC(N(C)C)C2)n2nccc2n1", "stereo": "stereo not drawn", "effect": -47.95}
{"compound": "CC(C)c1cc(NC(=O)c2ccc([S+]([O-])C(C)C)cc2)[nH]n1", "stereo": "stereo not drawn", "effect": 80.42}
{"compound": "O=C(O)Cn1ccc(=O)c2ccc(Cl)cc21", "effect": -12.97}
{"compound": "O=C(Nc1cccc(Cn2cccn2)c1)N1CCCC(N2CCCC2)C1", "stereo": "stereo not drawn", "effect": 6.24}
{"compound": "O=C(CCc1cc(Cl)no1)N1CCN(CCn2cncn2)CC1", "effect": -6.7}
{"compound": "COc1cccc2sc(N(C)CC(=O)NCc3nc(C)no3)nc12", "effect": 5.238}
{"compound": "CCc1nc(CCNC(=O)C2CCOC2)sc1C", "stereo": "stereo not drawn", "effect": 9.745}
{"compound": "NC(=O)C1CCN(C(=O)NCc2ccccc2Cn2ccnc2)CC1", "effect": -51.22}

Source: ChEMBL document CHEMBL3988442, “University of Dundee, Small-Polar-MMV Screening Library” (2021).